The source of these data is patent publication US20140212423A1.

The target in assay [1] is mouse Transferrin Receptor overexpressed on Hek 293 cells (mouse) (UniProt Q62351). Nature of the assay: 293/mTFR cell-based assay.
Assay [2] shares this target. The experiment in a line: MSD-ECL assay of Table 13.

No constants are given. Whether binding was seen depends on the method and setting. Some binding calls cover weakened binding; strength is not graded here.

B1: AB405-SL-Aβ(3D6) (bispecific antibody)
VH: QVQLVQSGAEVKKPGASVKVSCKASGFTFSNYGMHWIRQAPGQGLEWIAMIYYDSSKMNYADTVKGRFTITRDNSTNTLYMELSSLRSEDTAVYYCAVPTSHYVVDVWGQGTTVTVSSASTKGPEVQLLESGGGLVQPGGSLRLSCAASGFTFSNYGMSWVRQAPGKGLEWVASIRSGGGRTYYSDNVKGRFTISRDNSKNTLYLQMNSLRAEDTAVYYCVRYDHYSGSSDYWGQGTLVTVSS
VL: EIVMTQSPATLSVSPGERATLSCQASQDIGNWLAWYQQKPGQSPRLLIYGATSLADGVPARFSGSRSGTEFTLTISSLQSEDFAVYYCLQAYNTPWTFGGGTKVEIKRTVAAPSVFIFPPDVVMTQSPLSLPVTPGEPASISCKSSQSLLDSDGKTYLNWLLQKPGQSPQRLIYLVSKLDSGVPDRFSGSGSGTDFTLKISRVEAEDVGVYYCWQGTHFPRTFGQGTKVEIKR
Turning to B1, the binding entry in assay [1] is recorded as “binds”.

B2: Aβ(3D6)-GS-AB403 (bispecific antibody)
VH: EVQLLESGGGLVQPGGSLRLSCAASGFTFSNYGMSWVRQAPGKGLEWVASIRSGGGRTYYSDNVKGRFTISRDNSKNTLYLQMNSLRAEDTAVYYCVRYDHYSGSSDYWGQGTLVTVSSGGGGSGGGGSEVQLVESGGGLVQPGGSLRLSCAASGFTFSNYGMHWIRQAPGKGLEWIAMIYYDSSKMNYADTVKGRFTISRDNAKNSLYLQMNSLRAEDTAVYYCAVPTSHYVVDVWGQGTTVTVSS
VL: DVVMTQSPLSLPVTPGEPASISCKSSQSLLDSDGKTYLNWLLQKPGQSPQRLIYLVSKLDSGVPDRFSGSGSGTDFTLKISRVEAEDVGVYYCWQGTHFPRTFGQGTKVEIKRGGSGGGGSGEIVMTQSPATLSVSPGERATLSCQASQDIGNWLAWYQQKPGQSPRLLIYGATSLADGVPARFSGSRSGTEFTLTISSLQSEDFAVYYCLQAYNTPWTFGGGTKVEIKR
With B2, in assay [1], the binding result is recorded as “binds”.

B3: DVD2671 (bispecific antibody)
VH: EVQLLESGGGLVQPGGSLRLSCAASGFTFSNYGMSWVRQAPGKGLEWVASIRSGGGRTYYSDNVKGRFTISRDNSKNTLYLQMNSLRAEDTAVYYCVRYDHYSGSSDYWGQGTLVTVSSASTKGPSVFPLAPEVQLVESGGGLVQPGNSLTLSCVASGFTFSNYGMHWIRQAPKKGLEWIAMIYYDSSKMNYADTVKGRFTISRDNSKNTLYLEMNSLRSEDTAMYYCAVPTSHYVVDVWGQGVSVTVSS
VL: DVVMTQSPLSLPVTPGEPASISCKSSQSLLDSDGKTYLNWLLQKPGQSPQRLIYLVSKLDSGVPDRFSGSGSGTDFTLKISRVEAEDVGVYYCWQGTHFPRTFGQGTKVEIKRTVAAPDIQMTQSPASLSASLEEIVTITCQASQDIGNWLAWYQQKPGKSPQLLIYGATSLADGVPSRFSGSRSGTQFSLKISRVQVEDIGIYYCLQAYNTPWTFGGGTKLELK
As to B3, the binding entry in assay [2] is listed as “binds”.
